# Results of single-concentration screens

The chains behind the UniProt entries cited, without tags or fusion partners. Residues count along the entry.
UniProt Q4DA54, 1-478: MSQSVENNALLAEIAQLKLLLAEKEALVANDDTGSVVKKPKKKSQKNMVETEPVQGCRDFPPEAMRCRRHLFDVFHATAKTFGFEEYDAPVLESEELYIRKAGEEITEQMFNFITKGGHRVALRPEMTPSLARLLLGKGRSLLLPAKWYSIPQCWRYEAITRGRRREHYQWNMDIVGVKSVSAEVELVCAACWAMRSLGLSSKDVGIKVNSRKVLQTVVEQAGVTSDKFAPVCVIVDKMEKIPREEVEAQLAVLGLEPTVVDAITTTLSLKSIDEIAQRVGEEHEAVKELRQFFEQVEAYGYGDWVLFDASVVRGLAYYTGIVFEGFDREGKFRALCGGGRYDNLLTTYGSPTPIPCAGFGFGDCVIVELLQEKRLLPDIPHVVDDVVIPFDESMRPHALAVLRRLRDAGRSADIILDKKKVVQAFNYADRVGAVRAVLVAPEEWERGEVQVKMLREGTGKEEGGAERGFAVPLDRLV
UniProt P9WNZ1, whole entry: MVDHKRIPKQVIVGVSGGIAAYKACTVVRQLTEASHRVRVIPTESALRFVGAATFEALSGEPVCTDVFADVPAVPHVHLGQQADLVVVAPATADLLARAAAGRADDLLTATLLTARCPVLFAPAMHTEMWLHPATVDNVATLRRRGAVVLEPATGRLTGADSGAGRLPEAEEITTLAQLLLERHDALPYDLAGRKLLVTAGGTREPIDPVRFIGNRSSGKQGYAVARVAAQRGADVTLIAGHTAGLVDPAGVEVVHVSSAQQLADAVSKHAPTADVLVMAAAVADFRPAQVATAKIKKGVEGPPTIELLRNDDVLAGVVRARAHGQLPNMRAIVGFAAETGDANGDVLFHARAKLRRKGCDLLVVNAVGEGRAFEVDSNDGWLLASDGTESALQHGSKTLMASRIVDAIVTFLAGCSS
UniProt A4I591, 1-473: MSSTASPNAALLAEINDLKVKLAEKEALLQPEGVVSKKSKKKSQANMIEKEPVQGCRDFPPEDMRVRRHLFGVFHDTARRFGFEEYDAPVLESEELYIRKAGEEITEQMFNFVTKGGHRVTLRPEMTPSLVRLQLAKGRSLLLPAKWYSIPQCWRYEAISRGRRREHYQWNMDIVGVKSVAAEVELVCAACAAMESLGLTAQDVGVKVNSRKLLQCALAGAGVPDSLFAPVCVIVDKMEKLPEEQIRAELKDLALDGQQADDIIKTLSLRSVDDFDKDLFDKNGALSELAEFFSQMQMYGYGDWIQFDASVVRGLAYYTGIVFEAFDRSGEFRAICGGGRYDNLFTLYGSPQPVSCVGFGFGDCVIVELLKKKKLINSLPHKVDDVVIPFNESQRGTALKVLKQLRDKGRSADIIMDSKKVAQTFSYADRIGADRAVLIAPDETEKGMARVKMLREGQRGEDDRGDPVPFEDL

Data taken from ChEMBL document CHEMBL3988442, “University of Dundee, Small-Polar-MMV Screening Library” (2021).

Each number is a percent effect as filed.
How 0% and 100% were set is not recorded. Most values in the screen are low, and negative values occur.
This is an unselected part of the compounds tested.
Two or more numbers in one place are separate tests of the same structure; such repeats can differ widely.
A dash means the value is not listed here; it may have been measured.

TcHisRS: 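Enzyme assay of histidyl-tRNA synthetase; the read-out is not stated. Target: Histidine-tRNA ligase, Trypanosoma cruzi CL Brener (UniProt Q4DA54). Tested at 30 µM. Higher reads as stronger inhibition (inferred: compounds with an IC50 in retests scored well above the rest). About 69,000 compounds were tested under these conditions; 0.045% (about 31) showed 50% or more at least once.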
Leishmania in macrophages: 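Cell assay of Leishmania donovani living inside macrophages; the read-out is not stated. Concentration: 30 µM. The record gives no direction; compounds that gave an IC50 in retests scored well above the rest, so higher reads as stronger inhibition. About 69,000 compounds were tested under these conditions; 1.5% (about 1,000) showed 50% or more at least once.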
Toxoplasma: 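Assay of Toxoplasma gondii numbers, read through their beta-galactosidase reporter with a colour substrate. Concentration: 10 µM. Higher reads as fewer parasites (inferred from which compounds were picked for retests). About 67,000 compounds were tested under these conditions; 0.38% (about 260) showed 50% or more at least once.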
CoaBC: 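Enzyme assay of CoaBC with a phosphate dye (Biomol Green) read at 650 nm. Target: Coenzyme A biosynthesis protein CoaBC, Mycobacterium tuberculosis (UniProt P9WNZ1). Concentration: 30 µM. Higher reads as stronger inhibition, judged from the few compounds that gave an IC50. Most strong results did not repeat in a second test. Size under these conditions: about 67,000 compounds, about 40 of them at 50% or above in at least one test.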
LiHisRS: 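Histidine-tRNA ligase, Leishmania infantum (UniProt A4I591). Enzyme assay of histidyl-tRNA synthetase; the read-out is not stated. Compounds at 30 µM. The record gives no direction; compounds that gave an IC50 in retests scored well above the rest, so higher reads as stronger inhibition. The assay is labelled LdHisRS but filed under L. infantum. Size under these conditions: about 69,000 compounds, about 410 of them at 50% or above in at least one test.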

Compound	TcHisRS	Leishmania in macrophages	Toxoplasma	CoaBC	LiHisRS
O=C1OC2(CCNCC2)CN1CC(=O)N1CCC1c1cccs1 (centres unmarked)	5.814	9.636	-25.91	-51.07	9.836
Cn1cc(CN2C[C@@H]3COC[C@]3(COCC3CC3)C2)cn1	4.42	-	-	-0.495	9.91
CN(C)C(=O)N1CC[C@@H](O)[C@@H]1Cc1ccccc1	6.25	9.414	5.038	-1.176	21.1
Cn1ncc2c1C(COCC1CC1)N(Cc1ccoc1)CC2 (centres unmarked)	0	-	-	6.516	10.26
CCC1CCCCN1C(=O)Cn1nc(-c2ccc(C)s2)cc(N)c1=O (centres unmarked)	0	18.58	1.258	-6.658	1.408
N#Cc1ccsc1NC(=O)CCN1CCn2c(nnc2C2CC2)C1	2.286	24.52	3.455	-5.018	3.846
Cc1nc(CSCCC(=O)NCc2ccc(N(C)C)cc2)cs1	4.07	35.9	-21.96	15.79	25
O=C(O)C(F)(F)F.[H][C@@]12OCCN(CC3CCOCC3)[C@@]1([H])CC[C@H]2OCC1CCCC1	-	33.18	13.12	-	-
COc1ccc(CCC(=O)N2CCCCC2Cn2cccn2)cc1F (centres unmarked)	5.539	26.06	13.58	6.266	6.195
Oc1ccccc1CN1CCC(n2cc(-c3ccc(F)cc3)nn2)CC1	4.124	16.38	13.5	2.418	2.857
Cc1cnn(CC(=O)N2CCCN(c3ncccc3C#N)CC2)c1	1.433	11.89	-39.03	1.863	10.53
CN(Cc1ccco1)C(=O)CN1CCCC1Cn1cncn1 (centres unmarked)	8	7.43	-3.805	0.7168	11.54
CN(C)Cc1cnc2n1CCN(C(=O)NC1CCCC1)CC2	6.329	-	-	-	13.79
CC1c2cccn2CCN1C(=O)CCc1nc(-c2ccccc2)no1 (centres unmarked)	8.808	9.792	13.85	3.704	19.35
Cc1ccc(N2CCC3(CN(Cc4ccncc4)CCC3(F)F)C2)nn1 (centres unmarked)	5.556	-	-	3.171	13.21
Cc1nnc(C[C@@H]2COC[C@H]3CN(C(=O)C4=CCCC4)C[C@@H]23)o1	2.454	-	-	-	15.38
COc1ccc(NC2(C(=O)N3CCCn4cncc4C3)CCCC2)cc1	10.26	14.07	3.889	51.89 & 0.5155	30.61
c1cncc(-c2ccnn2CN2CCOCC2)c1	6.952	-9.601	-3.808	-3.478	1.571
Cc1c(I)cccc1C(=O)NCc1ncc[nH]1	2.703	-14.23	-8.778	-35.47	8.547
CNc1cc(C2CCCNC2)nc(C)n1 (centres unmarked)	-40.91	-	-	-2.959	-108.5
Cc1nnsc1C(=O)N1CCCC(c2nccn2Cc2cscn2)C1 (centres unmarked)	-0.5025	-3.035	3.244	3.016	12
COCC(=O)N1CCC(c2csc(NC(C)=O)n2)CC1	1.521	4.413	1.58	5.068	-0.6897
CN1CCN(C2CCN(c3ccnc(-c4ccccc4)n3)CC2)C1=O	12.61	34.71	8.403	5.645	17.54
O=C(O)C(F)(F)F.OCCOCc1nnn2c1CN(c1ncccn1)CCC2	-	5.377	-1.33	-	-
O=C(NCCc1cccs1)N1CCCC1CCCO (centres unmarked)	-1.316	20.02	0.5708	-	7.5
Cc1ccc(NC(=O)N2CC(C(=O)NC(C)C)C3(CCOCC3)C2)cc1 (centres unmarked)	10.92	23.98	-9.824	1.42	13.76
Cc1noc(C)c1CN1CCCC2(C1)CN(c1nncs1)CCO2 (centres unmarked)	4.902	9.839	4.394	3.909	28.57
CNC(=O)c1[nH]nc2ccc(I)cc12	-1.149	25.7	14.69	12	2.564
Oc1ccc(N(CCc2ccccc2)CCn2cncn2)cc1	11.06	15.79	16.6	5.14	46.9
O=C(NCc1nnc2n1CCC2)c1cn(-c2cccc(Br)c2)nn1	4.464	-12.65	-10.67	1.132	21.24
CCNC(=O)NC1CCC(Oc2ccccc2C#N)CC1 (centres unmarked)	-4.082	7.952	7.005	11.45	-8.571
CC(=O)c1ccc(S(=O)(=O)N2CCOC(Cn3ccnc3)C2)cc1 (centres unmarked)	6.513	21.27	1.653	-4.369	14.29

For reference, 2 entries once more:

Compound,TcHisRS,Leishmania in macrophages,Toxoplasma,CoaBC,LiHisRS
CCNC(=O)NC1CCC(Oc2ccccc2C#N)CC1 (centres unmarked),-4.082,7.952,7.005,11.45,-8.571
Cc1cnn(CC(=O)N2CCCN(c3ncccc3C#N)CC2)c1,1.433,11.89,-39.03,1.863,10.53